These are yes or no findings as the source states them, for the method shown. Binding seen in cells or lysates may run through a third protein.
Molecular target: dHD-TGIF1 (TGIF1 with the homeodomain deleted, 1-52:138-272), Flag-tagged (human (cDNA from HEK293T)) (UniProt Q15583)
Test: co-IP; HEK293FT cells co-transfected for 48 h; lysate in TNE buffer (20 mM Tris-HCl pH 7.4, 150 mM NaCl, 2 mM EDTA, 1 % Triton X-100); precipitated with anti-Flag antibody and protein A-Sepharose overnight at 4°C; anti-Myc immunoblotting

The chains behind the UniProt entries cited, without tags or fusion partners. Where a name states a change or a piece, a line headed by the entry shows the natural chain unless it says otherwise. A line that says so, or that is headed by a name, gives the form on record, which may keep a tag or linker. Residues count along the entry.
dHD-TGIF1 (TGIF1 with the homeodomain deleted, 1-52:138-272), Flag-tagged (human (cDNA from HEK293T)) (Q15583, form named): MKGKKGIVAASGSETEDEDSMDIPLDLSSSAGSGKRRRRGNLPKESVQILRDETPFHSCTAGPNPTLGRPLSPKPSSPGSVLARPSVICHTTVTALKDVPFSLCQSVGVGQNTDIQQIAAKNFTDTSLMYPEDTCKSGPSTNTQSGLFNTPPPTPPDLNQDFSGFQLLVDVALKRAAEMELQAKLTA
UniProt P35222: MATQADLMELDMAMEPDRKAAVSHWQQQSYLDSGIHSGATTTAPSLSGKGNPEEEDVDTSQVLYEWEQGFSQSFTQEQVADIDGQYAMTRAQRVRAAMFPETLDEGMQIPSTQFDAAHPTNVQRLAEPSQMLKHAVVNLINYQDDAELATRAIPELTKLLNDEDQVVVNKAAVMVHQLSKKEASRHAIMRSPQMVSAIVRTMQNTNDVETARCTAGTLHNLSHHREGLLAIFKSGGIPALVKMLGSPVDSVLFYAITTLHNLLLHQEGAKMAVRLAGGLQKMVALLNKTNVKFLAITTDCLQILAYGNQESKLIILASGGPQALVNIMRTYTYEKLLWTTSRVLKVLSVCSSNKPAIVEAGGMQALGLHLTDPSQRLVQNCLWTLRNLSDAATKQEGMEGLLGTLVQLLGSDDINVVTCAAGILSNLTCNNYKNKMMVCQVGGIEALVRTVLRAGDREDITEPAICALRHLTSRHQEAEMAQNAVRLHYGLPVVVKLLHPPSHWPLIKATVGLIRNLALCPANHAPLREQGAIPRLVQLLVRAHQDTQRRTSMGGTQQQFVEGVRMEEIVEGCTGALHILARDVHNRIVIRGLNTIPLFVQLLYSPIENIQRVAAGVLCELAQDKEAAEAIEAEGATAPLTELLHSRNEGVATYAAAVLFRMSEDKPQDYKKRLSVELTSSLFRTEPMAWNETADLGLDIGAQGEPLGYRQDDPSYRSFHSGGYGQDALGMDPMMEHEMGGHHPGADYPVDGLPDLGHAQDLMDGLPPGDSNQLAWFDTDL

binding: no binding
Substance: β-catenin (from UniProt P35222 1-781)
